Measurements from publication doi:10.1101/2024.01.30.577963.
Substitutions are numbered along the chain they refer to. In names and notes the source's numbering stands. These are yes or no findings as the source states them, for the method shown. For part of these data: Binding seen in cells or lysates may run through a third protein. Some binding calls cover weakened binding; strength is not graded here. For part of these data: Sequences can lack the tags named with a protein. Each block holds one molecule with its values, some of them ahead of it.

The chains behind the UniProt entries cited, without tags or fusion partners.
UniProt P53224: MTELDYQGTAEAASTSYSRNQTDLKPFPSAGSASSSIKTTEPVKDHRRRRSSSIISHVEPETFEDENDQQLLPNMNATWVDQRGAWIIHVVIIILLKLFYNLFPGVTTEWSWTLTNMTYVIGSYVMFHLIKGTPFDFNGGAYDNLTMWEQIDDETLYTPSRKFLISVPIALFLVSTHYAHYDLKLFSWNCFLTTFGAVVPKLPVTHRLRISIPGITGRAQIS

Columns and labels:
[1] = molecular target: T1, ALFA-Lcb1 (S. cerevisiae) (UniProt P25045); test: co-IP
T1 sequence: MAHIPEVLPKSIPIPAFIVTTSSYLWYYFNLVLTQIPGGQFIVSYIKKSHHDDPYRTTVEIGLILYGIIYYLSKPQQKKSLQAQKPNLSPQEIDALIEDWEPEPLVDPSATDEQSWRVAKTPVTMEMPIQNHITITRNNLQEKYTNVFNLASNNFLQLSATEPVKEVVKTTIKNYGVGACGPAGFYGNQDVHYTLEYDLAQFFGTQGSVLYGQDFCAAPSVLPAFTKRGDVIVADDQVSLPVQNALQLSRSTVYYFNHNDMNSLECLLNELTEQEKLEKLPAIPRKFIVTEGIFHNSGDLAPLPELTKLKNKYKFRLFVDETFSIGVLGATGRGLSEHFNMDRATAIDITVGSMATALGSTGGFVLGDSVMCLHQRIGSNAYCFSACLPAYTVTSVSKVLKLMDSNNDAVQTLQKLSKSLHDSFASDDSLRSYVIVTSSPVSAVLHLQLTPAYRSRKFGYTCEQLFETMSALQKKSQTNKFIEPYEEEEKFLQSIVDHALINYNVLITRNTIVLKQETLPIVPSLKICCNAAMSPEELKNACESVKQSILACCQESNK

[2] = molecular target: T2, Lcb1 with an internal 3xFLAG epitope inserted after P9 (S. cerevisiae) (UniProt P25045); test: cryo-EM structure
T2 sequence: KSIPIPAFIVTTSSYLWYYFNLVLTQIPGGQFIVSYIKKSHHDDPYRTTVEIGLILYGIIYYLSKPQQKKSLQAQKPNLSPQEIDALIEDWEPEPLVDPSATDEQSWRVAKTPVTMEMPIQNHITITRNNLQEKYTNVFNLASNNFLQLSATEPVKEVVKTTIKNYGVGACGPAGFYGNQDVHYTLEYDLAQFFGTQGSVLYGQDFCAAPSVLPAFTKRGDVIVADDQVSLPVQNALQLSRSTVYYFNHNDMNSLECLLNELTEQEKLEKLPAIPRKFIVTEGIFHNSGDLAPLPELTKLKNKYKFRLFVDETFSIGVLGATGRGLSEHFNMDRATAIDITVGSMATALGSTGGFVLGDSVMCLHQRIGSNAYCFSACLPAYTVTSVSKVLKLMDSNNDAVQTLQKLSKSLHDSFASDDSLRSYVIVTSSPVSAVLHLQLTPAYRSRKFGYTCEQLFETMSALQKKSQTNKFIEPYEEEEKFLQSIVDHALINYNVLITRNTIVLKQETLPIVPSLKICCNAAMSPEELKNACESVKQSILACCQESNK

[3] = molecular target: T2, Lcb1 with an internal 3xFLAG epitope inserted after P9 (S. cerevisiae); test: co-IP
Tsc3 (S. cerevisiae) = molecular target: T3, Tsc3 (S. cerevisiae) (UniProt Q3E790); test: cryo-EM structure
T3 sequence: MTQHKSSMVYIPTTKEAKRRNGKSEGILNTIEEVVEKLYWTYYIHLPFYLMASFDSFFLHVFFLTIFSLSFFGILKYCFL

Molecule: N-terminally 3xFLAG-tagged Orm1 (from UniProt P53224 1-222)
binding [1]: binds

B1: Lcb1 with an internal 3xFLAG epitope inserted after P9 (enzyme, UniProt P25045 10-558)
chain: T2 sequence
binding [2]: binds

B2: N-terminally 3xFLAG-tagged Orm2 (protein, UniProt Q06144 1-216)
chain: MIDRTKNESPAFEESPLTPNVSNLKPFPSQSNKISTPVTDHRRRRSSSVISHVEQETFEDENDQQMLPNMNATWVDQRGAWLIHIVVIVLLRLFYSLFGSTPKWTWTLTNMTYIIGFYIMFHLVKGTPFDFNGGAYDNLTMWEQINDETLYTPTRKFLLIVPIVLFLISNQYYRNDMTLFLSNLAVTVLIGVVPKLGITHRLRISIPGITGRAQIS
binding [1]: binds

B6: Lcb2 (enzyme, UniProt P40970 1-561)
chain: MSTPANYTRVPLCEPEELPDDIQKENEYGTLDSPGHLYQVKSRHGKPLPEPVVDTPPYYISLLTYLNYLILIILGHVHDFLGMTFQKNKHLDLLEHDGLAPWFSNFESFYVRRIKMRIDDCFSRPTTGVPGRFIRCIDRISHNINEYFTYSGAVYPCMNLSSYNYLGFAQSKGQCTDAALESVDKYSIQSGGPRAQIGTTDLHIKAEKLVARFIGKEDALVFSMGYGTNANLFNAFLDKKCLVISDELNHTSIRTGVRLSGAAVRTFKHGDMVGLEKLIREQIVLGQPKTNRPWKKILICAEGLFSMEGTLCNLPKLVELKKKYKCYLFIDEAHSIGAMGPTGRGVCEIFGVDPKDVDILMGTFTKSFGAAGGYIAADQWIIDRLRLDLTTVSYSESMPAPVLAQTISSLQTISGEICPGQGTERLQRIAFNSRYLRLALQRLGFIVYGVADSPVIPLLLYCPSKMPAFSRMMLQRRIAVVVVAYPATPLIESRVRFCMSASLTKEDIDYLLRHVSEVGDKLNLKSNSGKSSYDGKRQRWDIEEVIRRTPEDCKDDKYFVN
modifications: PLP covalently bound to the ε-amino group of K366 as an internal aldimine
binding [2]: binds

The next lines start with the values.

binding [1]: binds
Molecule: Orm1 (endogenous, untagged) (from UniProt P53224 1-222)

binding [3]: binds
B3: Orm2^3D (phospho-mimetic Orm2 mutant, S46-48 to aspartate) (protein, UniProt Q06144 1-216)
chain: B2 chain with S46D, S47D, S48D

binding [1]: binds
B4: Orm2 (endogenous, untagged) (protein, UniProt Q06144 1-216)
chain: B2 chain

binding [2]: binds | binding (Tsc3 (S. cerevisiae)): no binding
B5: Orm2^3A (non-phosphorylatable Orm2 mutant, S46A S47A S48A) (protein, UniProt Q06144 1-216)
chain: B2 chain with S46A, S47A, S48A
